These are yes or no findings as the source states them, for the method shown. Binding seen in cells or lysates may run through a third protein. These calls come from enrichment with a bait or labelling near it, and not all partners need be listed.
What was measured:
[1] = target: FLAG-tagged human SP140 (Speckled Protein 140) (human) (UniProt Q13342); assay: affinity purification with mass spectrometry
[2] = target: endogenous SP140 (wild-type) (human (endogenous in THP1 and LBL)) (UniProt Q13342); assay: affinity purification with mass spectrometry

Protein sequences, listed by entry. Tags and fused reporters are not part of them.
UniProt Q13342: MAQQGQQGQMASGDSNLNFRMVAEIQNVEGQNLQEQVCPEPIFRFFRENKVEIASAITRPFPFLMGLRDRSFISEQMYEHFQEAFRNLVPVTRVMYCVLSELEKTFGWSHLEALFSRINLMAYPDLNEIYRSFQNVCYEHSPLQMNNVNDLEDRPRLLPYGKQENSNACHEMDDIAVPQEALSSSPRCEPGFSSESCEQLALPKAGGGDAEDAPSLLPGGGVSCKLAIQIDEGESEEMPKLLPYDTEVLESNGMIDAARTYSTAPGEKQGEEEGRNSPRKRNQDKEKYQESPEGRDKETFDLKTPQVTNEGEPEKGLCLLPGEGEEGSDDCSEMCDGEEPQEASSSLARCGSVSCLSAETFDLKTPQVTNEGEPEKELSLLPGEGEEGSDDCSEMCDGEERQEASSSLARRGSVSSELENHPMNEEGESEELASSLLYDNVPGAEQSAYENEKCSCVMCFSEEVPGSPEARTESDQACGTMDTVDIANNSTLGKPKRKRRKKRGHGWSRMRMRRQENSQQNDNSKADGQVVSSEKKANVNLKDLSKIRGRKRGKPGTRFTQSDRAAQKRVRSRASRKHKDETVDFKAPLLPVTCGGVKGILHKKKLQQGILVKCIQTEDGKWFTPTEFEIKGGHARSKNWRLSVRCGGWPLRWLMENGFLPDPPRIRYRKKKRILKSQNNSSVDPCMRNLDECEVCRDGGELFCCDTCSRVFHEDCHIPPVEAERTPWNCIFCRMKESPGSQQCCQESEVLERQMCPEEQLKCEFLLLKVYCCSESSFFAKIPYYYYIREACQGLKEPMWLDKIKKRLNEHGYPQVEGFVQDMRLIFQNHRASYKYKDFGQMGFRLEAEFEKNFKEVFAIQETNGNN
UniProt Q02880: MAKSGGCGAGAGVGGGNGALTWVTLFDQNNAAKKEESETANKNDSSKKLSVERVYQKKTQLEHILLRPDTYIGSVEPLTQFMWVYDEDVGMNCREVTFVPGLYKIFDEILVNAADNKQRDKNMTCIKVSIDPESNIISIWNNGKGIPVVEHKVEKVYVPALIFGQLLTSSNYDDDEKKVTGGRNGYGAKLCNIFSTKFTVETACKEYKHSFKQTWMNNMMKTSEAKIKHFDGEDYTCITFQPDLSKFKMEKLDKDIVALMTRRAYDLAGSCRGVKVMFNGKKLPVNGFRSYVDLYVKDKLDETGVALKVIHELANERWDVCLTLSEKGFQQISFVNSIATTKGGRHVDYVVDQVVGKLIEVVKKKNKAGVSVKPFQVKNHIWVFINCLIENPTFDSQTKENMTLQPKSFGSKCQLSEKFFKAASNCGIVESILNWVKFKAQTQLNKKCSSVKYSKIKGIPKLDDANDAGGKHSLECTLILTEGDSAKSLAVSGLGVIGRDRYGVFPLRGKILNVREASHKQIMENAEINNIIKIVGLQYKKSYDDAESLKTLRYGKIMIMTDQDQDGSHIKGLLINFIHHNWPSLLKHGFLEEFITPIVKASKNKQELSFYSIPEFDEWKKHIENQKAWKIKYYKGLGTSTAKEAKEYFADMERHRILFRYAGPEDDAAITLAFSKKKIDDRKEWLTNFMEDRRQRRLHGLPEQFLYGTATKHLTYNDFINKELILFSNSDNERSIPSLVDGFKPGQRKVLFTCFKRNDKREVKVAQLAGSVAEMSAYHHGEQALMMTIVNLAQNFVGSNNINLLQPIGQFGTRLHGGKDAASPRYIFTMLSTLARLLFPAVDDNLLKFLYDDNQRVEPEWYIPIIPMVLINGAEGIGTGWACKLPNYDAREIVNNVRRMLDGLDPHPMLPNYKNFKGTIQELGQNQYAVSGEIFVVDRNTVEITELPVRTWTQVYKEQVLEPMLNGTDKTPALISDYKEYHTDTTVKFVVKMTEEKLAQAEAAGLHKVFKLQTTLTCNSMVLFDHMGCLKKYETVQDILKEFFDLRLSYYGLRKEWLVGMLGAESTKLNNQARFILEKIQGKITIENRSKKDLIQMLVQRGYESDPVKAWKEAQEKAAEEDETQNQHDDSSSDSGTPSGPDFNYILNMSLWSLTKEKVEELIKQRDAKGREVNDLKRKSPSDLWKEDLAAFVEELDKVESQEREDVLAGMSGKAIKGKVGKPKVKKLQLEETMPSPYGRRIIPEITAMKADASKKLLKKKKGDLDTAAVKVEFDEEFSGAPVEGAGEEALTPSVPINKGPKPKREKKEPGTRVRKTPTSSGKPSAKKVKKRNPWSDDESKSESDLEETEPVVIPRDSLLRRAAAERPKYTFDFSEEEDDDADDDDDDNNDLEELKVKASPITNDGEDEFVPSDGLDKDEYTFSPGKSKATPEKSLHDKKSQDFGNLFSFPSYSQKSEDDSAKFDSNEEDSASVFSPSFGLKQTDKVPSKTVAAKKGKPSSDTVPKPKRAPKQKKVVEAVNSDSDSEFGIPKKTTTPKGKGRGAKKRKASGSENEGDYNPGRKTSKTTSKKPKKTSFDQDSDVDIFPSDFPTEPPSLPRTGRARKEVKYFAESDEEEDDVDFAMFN
UniProt O60264: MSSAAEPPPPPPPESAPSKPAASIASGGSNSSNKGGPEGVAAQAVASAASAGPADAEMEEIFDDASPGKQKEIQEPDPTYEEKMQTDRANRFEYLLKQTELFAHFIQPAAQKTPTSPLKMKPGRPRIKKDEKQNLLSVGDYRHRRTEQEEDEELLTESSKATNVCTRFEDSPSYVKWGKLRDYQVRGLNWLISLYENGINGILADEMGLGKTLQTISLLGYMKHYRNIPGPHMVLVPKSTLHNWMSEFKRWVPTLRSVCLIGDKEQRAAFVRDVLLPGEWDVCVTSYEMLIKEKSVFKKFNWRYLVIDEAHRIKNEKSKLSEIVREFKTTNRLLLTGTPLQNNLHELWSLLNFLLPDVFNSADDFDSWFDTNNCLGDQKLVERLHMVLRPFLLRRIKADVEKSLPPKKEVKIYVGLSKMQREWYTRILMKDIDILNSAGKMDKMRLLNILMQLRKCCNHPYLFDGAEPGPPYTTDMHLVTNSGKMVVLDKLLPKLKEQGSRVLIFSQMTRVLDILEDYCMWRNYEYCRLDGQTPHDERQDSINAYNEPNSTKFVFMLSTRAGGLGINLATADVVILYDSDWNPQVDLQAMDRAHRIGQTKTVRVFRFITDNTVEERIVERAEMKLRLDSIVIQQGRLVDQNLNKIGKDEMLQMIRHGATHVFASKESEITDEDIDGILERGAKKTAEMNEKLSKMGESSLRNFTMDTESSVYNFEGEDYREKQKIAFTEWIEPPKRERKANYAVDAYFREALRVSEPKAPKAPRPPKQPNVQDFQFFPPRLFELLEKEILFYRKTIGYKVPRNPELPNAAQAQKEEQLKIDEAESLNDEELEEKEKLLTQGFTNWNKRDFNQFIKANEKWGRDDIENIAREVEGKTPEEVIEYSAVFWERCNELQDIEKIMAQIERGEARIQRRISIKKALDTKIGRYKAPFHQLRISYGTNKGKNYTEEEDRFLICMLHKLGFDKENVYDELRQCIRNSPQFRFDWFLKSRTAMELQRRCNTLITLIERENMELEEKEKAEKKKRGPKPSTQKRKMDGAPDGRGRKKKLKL
UniProt Q9Y5B9: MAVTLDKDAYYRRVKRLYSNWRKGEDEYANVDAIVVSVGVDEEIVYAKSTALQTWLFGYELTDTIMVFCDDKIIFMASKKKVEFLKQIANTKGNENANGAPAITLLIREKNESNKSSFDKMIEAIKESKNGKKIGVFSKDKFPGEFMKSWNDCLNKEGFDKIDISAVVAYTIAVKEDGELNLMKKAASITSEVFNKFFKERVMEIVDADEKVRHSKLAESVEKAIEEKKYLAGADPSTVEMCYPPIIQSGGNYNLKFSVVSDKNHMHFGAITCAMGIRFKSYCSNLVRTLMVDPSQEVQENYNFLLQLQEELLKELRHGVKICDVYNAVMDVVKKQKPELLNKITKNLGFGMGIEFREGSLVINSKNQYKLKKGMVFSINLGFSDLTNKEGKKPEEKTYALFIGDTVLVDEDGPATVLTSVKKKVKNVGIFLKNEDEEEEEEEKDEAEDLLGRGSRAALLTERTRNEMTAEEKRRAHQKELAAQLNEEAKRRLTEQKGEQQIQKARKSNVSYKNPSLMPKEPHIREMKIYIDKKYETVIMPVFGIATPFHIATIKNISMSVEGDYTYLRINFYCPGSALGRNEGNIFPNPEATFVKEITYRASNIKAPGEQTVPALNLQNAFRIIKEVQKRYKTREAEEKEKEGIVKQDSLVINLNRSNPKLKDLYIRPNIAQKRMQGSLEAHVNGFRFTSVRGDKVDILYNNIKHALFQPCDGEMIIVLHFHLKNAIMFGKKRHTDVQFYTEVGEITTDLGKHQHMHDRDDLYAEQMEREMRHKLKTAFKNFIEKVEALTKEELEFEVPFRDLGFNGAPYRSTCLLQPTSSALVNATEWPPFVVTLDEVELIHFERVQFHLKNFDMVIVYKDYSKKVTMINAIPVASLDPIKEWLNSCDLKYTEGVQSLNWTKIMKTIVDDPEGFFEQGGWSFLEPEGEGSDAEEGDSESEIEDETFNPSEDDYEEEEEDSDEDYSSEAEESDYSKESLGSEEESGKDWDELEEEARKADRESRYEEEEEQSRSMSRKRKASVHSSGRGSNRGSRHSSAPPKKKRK
UniProt P11387: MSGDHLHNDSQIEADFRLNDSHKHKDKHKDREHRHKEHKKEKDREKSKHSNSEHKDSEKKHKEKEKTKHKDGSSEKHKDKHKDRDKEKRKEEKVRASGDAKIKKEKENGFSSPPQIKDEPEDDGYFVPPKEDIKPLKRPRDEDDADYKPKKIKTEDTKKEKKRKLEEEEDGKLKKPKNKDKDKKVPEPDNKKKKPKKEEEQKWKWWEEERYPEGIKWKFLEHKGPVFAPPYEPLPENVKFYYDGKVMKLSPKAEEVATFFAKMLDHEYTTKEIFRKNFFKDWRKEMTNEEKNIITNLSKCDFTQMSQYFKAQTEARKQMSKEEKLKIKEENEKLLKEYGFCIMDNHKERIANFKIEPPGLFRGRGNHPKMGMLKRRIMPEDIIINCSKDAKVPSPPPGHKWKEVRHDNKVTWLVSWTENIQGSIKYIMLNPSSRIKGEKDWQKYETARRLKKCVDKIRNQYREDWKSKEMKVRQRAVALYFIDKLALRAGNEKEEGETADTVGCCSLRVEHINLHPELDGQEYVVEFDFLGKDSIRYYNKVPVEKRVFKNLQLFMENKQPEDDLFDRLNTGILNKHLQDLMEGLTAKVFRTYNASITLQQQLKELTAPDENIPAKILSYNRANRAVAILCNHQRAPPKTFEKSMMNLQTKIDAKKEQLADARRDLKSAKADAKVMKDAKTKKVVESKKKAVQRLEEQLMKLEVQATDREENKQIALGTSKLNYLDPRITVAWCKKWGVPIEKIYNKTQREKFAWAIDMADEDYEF
UniProt Q08945: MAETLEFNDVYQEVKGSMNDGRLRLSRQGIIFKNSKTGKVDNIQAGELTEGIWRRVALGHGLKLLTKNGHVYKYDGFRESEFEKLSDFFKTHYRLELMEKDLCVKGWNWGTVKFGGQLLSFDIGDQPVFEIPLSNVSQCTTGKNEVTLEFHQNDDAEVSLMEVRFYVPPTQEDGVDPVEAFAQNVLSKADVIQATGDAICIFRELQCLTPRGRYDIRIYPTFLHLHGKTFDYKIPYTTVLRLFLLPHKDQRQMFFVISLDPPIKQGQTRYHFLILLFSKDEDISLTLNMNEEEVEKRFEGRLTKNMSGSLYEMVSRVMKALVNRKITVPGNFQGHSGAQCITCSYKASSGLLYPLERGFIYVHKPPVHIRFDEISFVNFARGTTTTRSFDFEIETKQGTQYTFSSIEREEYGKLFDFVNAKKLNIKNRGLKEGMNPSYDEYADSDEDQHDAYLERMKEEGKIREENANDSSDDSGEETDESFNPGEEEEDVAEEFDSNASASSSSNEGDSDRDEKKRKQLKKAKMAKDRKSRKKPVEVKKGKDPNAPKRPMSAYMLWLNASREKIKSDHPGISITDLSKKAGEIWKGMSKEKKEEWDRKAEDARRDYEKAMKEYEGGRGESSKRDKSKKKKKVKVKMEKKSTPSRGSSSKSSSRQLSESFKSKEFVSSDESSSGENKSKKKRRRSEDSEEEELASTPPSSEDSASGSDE

Substance	binding [1]	binding [2]
Topoisomerase II beta (TOP2B) (from UniProt Q02880 1-1626) (enzyme)	binds	binds
SWI/SNF-related matrix-associated actin-dependent regulator of chromatin subfamily A member 5 (SMARCA5) (from UniProt O60264 1-1052) (enzyme)	binds	
Facilitates chromatin transcription (FACT) complex subunit SPT16 (SUPT16H) (from UniProt Q9Y5B9 1-1047)	binds	binds
Topoisomerase I (TOP1) (from UniProt P11387 1-765) (enzyme)	binds	binds
DNA-dependent protein kinase (DNA-PK) (from UniProt P78527 1-4128) (enzyme)	binds	binds
FACT complex subunit SSRP1 (SSRP1) (from UniProt Q08945 1-709)	binds	binds

Reference: article doi:10.1101/2021.09.20.461083
